Test results published in PMC3210151 (2011).
Results are given in words; binding and its absence hold for the method and conditions named.

By UniProt entry, the sequences of proteins in these tests, tags left out. Where a name states a change or a piece, a line headed by the entry shows the natural chain unless it says otherwise. Chains listed by the source or under a name are the forms on record and can include a tag or linker.
MSPβ R689C (Phe465-Gly711, C672S, R689C) (P26927, form named): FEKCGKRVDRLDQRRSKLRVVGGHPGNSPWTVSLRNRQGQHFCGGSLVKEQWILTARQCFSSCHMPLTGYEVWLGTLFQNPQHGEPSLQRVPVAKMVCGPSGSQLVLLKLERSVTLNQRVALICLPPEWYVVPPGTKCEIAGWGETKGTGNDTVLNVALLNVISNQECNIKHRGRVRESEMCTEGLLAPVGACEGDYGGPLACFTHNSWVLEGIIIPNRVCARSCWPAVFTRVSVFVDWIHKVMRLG

Tests used:
[1] = target: wild type MSPβ (macrophage stimulating protein β-chain with the adjoining 19 residues of the α-chain, Phe465-Gly711, C672S) (human) (UniProt P26927); experiment: SEC-MALS; size exclusion chromatography and multiangle light scattering of purified MSPβ; both purified
[2] = target: MSPβ R689C (Phe465-Gly711, C672S, R689C) (human, UniProt P26927 465-711, C672S | R689C); experiment: as above

wild type MSPβ (macrophage stimulating protein β-chain with the adjoining 19 residues of the α-chain, Phe465-Gly711, C672S) (from UniProt P26927 465-711) (domain or fragment)
binding [1]: no binding

MSPβ R689C (Phe465-Gly711, C672S, R689C) (from UniProt P26927 465-711) (domain or fragment)
binding [2]: no binding
